Data taken from patent US20130095122A1, “Peptides or Antibodies Which Bind to Melanoma Inhibitory Activity (MIA) Protein” (priority 2010, published 2013).
No constants are given. Whether binding was seen depends on the method and setting. Some binding calls cover weakened binding; strength is not graded here. Where a sequence is shown, tags or fusion partners need not be part of it.

Molecular target: T1, melanoma inhibitory activity (MIA) protein, recombinant human wild type (human) (UniProt Q16674)
T1 sequence: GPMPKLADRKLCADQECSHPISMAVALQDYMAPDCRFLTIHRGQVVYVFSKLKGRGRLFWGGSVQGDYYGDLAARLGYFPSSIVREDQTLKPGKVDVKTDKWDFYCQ
Experiment: HTFP competition assay

In the case of FHWRYPLPLPGQ (peptide, not shown: small tags and cut ends) [AR71-HisTag peptide], the binding is reported as “binds”.
